PubChem BioAssay AID602196 – INSERM – 2012
In all, the deposit lists about 23,000 reagents; this is an unselected part. Over the whole deposit, 455 (2%) were called active. 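Active includes both protection and sensitisation; some change values fall well beyond the stated -50 to +50 range.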 Unmarked entries are inactive. Not stated in the record: the amount of reagent.

Purpose: 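Modifiers of cisplatin sensitivity in A549 cells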
System: human A549 lung cancer cells
Knock-down reagent: siRNA pair against human genes
Timing: 48 h transfection before cisplatin; time from cisplatin to read-out not stated
Treatment: cisplatin at a dose killing half of control-siRNA cells; exact dose and duration not given
Detection: 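Cisplatin cell death as a shift from the 50% death seen with control siRNA; siRNAs toxic or growth-blocking alone scored 0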
Reading the numbers: two-siRNA summed score (-2 to +2): higher = both siRNAs protect from cisplatin killing; -2 means both sensitise; mean protection from cisplatin (shift in death) and protection from cisplatin (shift in death), siRNA C and protection from cisplatin (shift in death), siRNA D: higher = protection from cisplatin killing
Active means: 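siRNAs harmful alone (LDH or WST-1) get 0; others get +1 for less and -1 for more cisplatin killing; genes are active when the two siRNAs give the same sign, summing to ±2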
Calls: active = both siRNAs shift cisplatin killing the same way; inactive = no consistent shift, or siRNA harmful alone

gene symbol	two-siRNA summed score (-2 to +2)	mean protection from cisplatin (shift in death) (%)	protection from cisplatin (shift in death), siRNA C (%)	protection from cisplatin (shift in death), siRNA D (%)
THEMIS	1	11	22.9	-0.8
MYBPC3	0	-1.7	-11.6	8.2
FAM204A	0	3.9	4.4	3.5
PIK3C3	0	-5.9	-7.7	-4.1
SLC4A3	0	7.1	13.1	1
ZNF311	1	9	3.7	14.3
IRAK3	0	4.2	-2.6	11
HMMR	0	21.8	38.9	4.6
BRIX1	-1	-7.7	-4.6	-10.8
NCS1	0	-4.8	-2.5	-7
PAK3	0	-4.1	-6.8	-1.4
LOC442148	0	12.8	24	1.6
PEBP4	0	-13	-11.6	-14.5
TACO1	0	0.2	0.8	-0.5
EIF4E	0	8.7	10.6	6.7
SLC18A1	-1	-6.6	-18.7	5.6
KCNJ15	1	11.4	13.3	9.4
OGT	0	5.6	13.5	-2.3
LOC389873	2 (active)	21.5	26.6	16.5
LOC284393	0	17.1	25.5	8.6
MLPH	0	-5.9	-2.6	-9.2
GP5	0	0.7	0.9	0.6
PAX4	1	10.1	6.2	14
UBQLN4P1	0	6.3	6.8	5.9
NME4	0	-1.7	-2.2	-1.2
PDILT	0	-0.9	2.5	-4.3

Continued (3 carried over from the part before).
gene symbol	two-siRNA summed score (-2 to +2)	mean protection from cisplatin (shift in death) (%)	protection from cisplatin (shift in death), siRNA C (%)	protection from cisplatin (shift in death), siRNA D (%)
UBQLN4P1	0	6.3	6.8	5.9
NME4	0	-1.7	-2.2	-1.2
PDILT	0	-0.9	2.5	-4.3
SEC13	1	7.7	16.1	-0.6
LOC441129	0	14.7	9.1	20.4
SNX9	0	-3.1	5	-11.3
DAZ4	1	14.4	13.8	15.1
PTPN1	0	17.3	5.5	29
CEP78	0	9.5	7.7	11.2
LOC286076	0	10.4	5.3	15.6
LOC400736	0	4.4	-3.2	11.9
PLXDC1	-1	-17.1	-20.8	-13.5
RDUR	0	8.1	16.7	-0.5
PSENEN	0	-20.8	-10.8	-30.9
ADPRM	0	-0.1	12	-12.1
ATP4A	0	17	27.4	6.6
